Results are given in words; binding and its absence hold for the method and conditions named. Binding seen in cells or lysates may run through a third protein. Some results given as binding are weak or reduced against the parent protein; the word gives no strength.

Chains of the proteins cited; added tags and fusions are not shown.
UniProt Q9UBL6: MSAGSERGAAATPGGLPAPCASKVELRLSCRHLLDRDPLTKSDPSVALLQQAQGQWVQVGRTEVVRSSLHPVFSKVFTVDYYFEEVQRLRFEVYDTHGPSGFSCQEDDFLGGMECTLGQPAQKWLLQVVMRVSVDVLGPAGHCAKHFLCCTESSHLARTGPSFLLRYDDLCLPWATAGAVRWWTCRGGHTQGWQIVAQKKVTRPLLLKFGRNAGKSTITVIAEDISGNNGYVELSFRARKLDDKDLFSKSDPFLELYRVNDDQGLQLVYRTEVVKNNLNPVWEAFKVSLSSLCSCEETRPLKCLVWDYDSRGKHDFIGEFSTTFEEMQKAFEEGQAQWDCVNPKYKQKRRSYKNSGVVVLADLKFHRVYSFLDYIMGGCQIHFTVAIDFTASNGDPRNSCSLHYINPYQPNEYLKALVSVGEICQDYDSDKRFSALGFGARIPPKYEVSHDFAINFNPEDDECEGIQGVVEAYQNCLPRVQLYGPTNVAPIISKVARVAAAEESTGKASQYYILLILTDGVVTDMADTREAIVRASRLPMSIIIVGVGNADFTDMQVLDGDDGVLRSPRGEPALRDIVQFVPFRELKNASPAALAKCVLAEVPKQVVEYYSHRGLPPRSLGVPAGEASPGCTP
UniProt P19338: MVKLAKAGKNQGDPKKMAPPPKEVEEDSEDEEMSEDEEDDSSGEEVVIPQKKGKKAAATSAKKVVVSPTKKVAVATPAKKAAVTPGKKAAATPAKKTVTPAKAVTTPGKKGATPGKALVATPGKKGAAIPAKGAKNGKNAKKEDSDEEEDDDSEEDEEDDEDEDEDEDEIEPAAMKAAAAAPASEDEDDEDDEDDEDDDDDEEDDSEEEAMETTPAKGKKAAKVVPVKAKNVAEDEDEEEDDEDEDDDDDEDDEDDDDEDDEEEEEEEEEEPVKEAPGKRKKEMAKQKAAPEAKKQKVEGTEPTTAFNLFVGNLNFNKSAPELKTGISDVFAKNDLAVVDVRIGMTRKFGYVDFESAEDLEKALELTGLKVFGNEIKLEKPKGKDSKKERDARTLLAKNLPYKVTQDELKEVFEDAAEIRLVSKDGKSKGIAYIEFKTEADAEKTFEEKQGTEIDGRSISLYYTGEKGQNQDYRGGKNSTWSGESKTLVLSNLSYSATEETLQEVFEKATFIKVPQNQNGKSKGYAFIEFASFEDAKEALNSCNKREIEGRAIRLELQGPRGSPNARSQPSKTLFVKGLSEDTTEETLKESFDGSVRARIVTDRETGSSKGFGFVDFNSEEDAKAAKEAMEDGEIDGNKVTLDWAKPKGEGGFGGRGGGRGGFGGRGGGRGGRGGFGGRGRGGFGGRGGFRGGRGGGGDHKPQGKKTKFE
UniProt P25963: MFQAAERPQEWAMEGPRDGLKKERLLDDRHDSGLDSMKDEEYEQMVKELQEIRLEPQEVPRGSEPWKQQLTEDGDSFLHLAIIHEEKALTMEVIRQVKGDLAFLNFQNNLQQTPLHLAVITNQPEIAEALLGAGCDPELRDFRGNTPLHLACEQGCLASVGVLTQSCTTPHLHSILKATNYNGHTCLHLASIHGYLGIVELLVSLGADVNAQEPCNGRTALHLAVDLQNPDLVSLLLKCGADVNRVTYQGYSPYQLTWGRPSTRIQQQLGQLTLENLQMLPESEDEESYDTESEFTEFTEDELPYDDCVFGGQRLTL

Assay [1] addresses CPNE7 fused with GFP protein (lentivirus-CPNE7-GFP) (UniProt Q9UBL6). Nature of the assay: co-IP; lysates of lv-CPNE7 transfected OLK-MSCs in NP-40 buffer; incubated at 4 °C overnight with GFP, total-IκBα, Nucleolin antibodies or normal IgG; Protein A/G PLUS agarose beads 1 h at 4 °C; western blot with GFP, CPNE7, total-IκBα, Nucleolin. A general note: Immunoblotting shows a protein as a band on a membrane.

Assay [2] deals with Nucleolin (human (endogenous in OLK-MSCs)) (UniProt P19338). The description is as above.

In the case of IκBα (from UniProt P25963 1-317), the binding result in assay [1] and in assay [2] was “binds” throughout.

Values taken from publication PMC8516970.
